Measurements reported in PubChem BioAssay AID1224828 (NIAID, 2016).

Screen: 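Knock-downs that increase or decrease LPS-induced p65 nuclear translocation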 (primary screen)
Cells: mouse RAW264.7 G9 macrophage reporter cells (GFP-p65, Tnf promoter-mCherry)
Reagent: siRNA pool against mouse genes, 100 nM
Time to read-out: 2 days siRNA transfection, then 40 min LPS before fixation
Challenge: LPS (Salmonella minnesota R595) at 10 ng/ml
Measured: 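Imaged p65 nuclear translocation ratio, normalised to the plate median, converted to robust z-scores and averaged across two replicates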
Reading the numbers: p65 translocation robust z-score: higher = more nuclear NF-kappaB p65 after LPS than the plate median; nuclear/cytoplasmic p65 ratio: higher = more nuclear NF-kappaB p65
Hit rule: 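Called active when z exceeds 3.3 or falls under -1.56 (median of Tlr4 controls), giving activity score of at least 50; no calls for control wells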
Calls: active = hit (p65 shift raised or lowered); inactive = no clear change
In all, the deposit lists about 17,000 reagents; this is a random part of them. In the full data, 762 (4.5%) were called active. 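Active calls include both raised and lowered p65 entry, mostly lowered; wells with fewer than 50 cells lack a z-score.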 Raw values are not corrected between plates. A number with no mark means an inactive call.

gene | p65 translocation robust z-score | nuclear/cytoplasmic p65 ratio, rep 1 | nuclear/cytoplasmic p65 ratio, rep 2 | low cell count flag
Kctd13 (potassium channel tetramerisation domain containing 13) | 1.13 | 1.61 | 1.67 | enough cells to score
Ino80e (INO80 complex subunit E) | 0.77 | 1.78 | 1.74 | enough cells to score
Vmn1r202 (vomeronasal 1 receptor 202) | 0.81 | 1.62 | 1.32 | enough cells to score
AU014748 | 0.89 | 1.55 | 1.82 | enough cells to score
Nkain3 (Na+/K+ transporting ATPase interacting 3) | 0.6 | 1.63 | 1.36 | enough cells to score
Psmd2 (proteasome (prosome, macropain) 26S subunit, non-ATPase, 2) | – | 1.18 | 1.25 | fewer than 50 cells per well; well left out of scoring
Fibp | -0.77 | 1.31 | 1.29 | enough cells to score
Ly9 (lymphocyte antigen 9) | -0.41 | 1.66 | 1.12 | enough cells to score
Or51q1 (olfactory receptor family 51 subfamily Q member 1) | -0.67 | 1.36 | 1.18 | enough cells to score
Yars2 (tyrosyl-tRNA synthetase 2 (mitochondrial)) | – | 1.48 | 1.22 | fewer than 50 cells per well; well left out of scoring
Apool (apolipoprotein O-like) | -1.65 (active) | 1.22 | 1.29 | enough cells to score
Vmac | 0.34 | 1.58 | 1.82 | enough cells to score
Brd2 (bromodomain containing 2) | 0.19 | 1.51 | 1.41 | enough cells to score
Tent5b (terminal nucleotidyltransferase 5B) | – | 0.779 | 1.27 | fewer than 50 cells per well; well left out of scoring
Lrrc8d (leucine rich repeat containing 8D) | – | 1.59 | 1.51 | fewer than 50 cells per well; well left out of scoring
Efcab6 (EF-hand calcium binding domain 6) | – | 1.24 | 1.08 | fewer than 50 cells per well; well left out of scoring
A730018C14Rik (RIKEN cDNA A730018C14 gene) | 2.24 | 1.74 | 1.84 | enough cells to score
Zfp146 (zinc finger protein 146) | 0.39 | 1.6 | 1.52 | enough cells to score
Dok2 (docking protein 2) | 0.15 | 1.52 | 1.38 | enough cells to score
Skp1 (S-phase kinase-associated protein 1) | -1.47 | 1.35 | 1.33 | enough cells to score
Hoxb9 (homeobox B9) | 0.7 | 1.83 | 1.57 | enough cells to score
Gm10283 (predicted gene 10283) | -2.21 (active) | 1.43 | 1.17 | enough cells to score
Hes2 (hes family bHLH transcription factor 2) | -1.19 | 1.41 | 1.39 | enough cells to score
Tbc1d7 (TBC1 domain family, member 7) | – | 1.41 | 1.21 | fewer than 50 cells per well; well left out of scoring

Hits, of those listed so far:
gene | p65 translocation robust z-score | nuclear/cytoplasmic p65 ratio, rep 1 | nuclear/cytoplasmic p65 ratio, rep 2 | low cell count flag
Apool (apolipoprotein O-like) | -1.65 (active) | 1.22 | 1.29 | enough cells to score
Gm10283 (predicted gene 10283) | -2.21 (active) | 1.43 | 1.17 | enough cells to score
